# Experiments:
# Amino acid sequences for entries named in this document (tags omitted). A change or cut given only in a name is not applied to a line headed by its entry.
# UniProt O00238: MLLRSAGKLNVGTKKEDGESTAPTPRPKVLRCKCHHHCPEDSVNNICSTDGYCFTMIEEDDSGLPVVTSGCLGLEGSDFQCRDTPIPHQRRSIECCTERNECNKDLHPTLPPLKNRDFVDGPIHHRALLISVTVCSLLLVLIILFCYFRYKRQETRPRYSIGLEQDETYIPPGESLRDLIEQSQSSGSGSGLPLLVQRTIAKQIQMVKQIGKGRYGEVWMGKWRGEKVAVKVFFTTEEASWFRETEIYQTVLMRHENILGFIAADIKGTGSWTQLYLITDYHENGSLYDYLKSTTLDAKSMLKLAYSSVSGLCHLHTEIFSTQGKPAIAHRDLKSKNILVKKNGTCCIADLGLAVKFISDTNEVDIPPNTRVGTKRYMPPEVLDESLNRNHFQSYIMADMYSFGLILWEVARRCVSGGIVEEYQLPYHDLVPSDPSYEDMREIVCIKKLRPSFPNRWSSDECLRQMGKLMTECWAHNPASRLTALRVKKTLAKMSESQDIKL
# UniProt Q8IWQ3: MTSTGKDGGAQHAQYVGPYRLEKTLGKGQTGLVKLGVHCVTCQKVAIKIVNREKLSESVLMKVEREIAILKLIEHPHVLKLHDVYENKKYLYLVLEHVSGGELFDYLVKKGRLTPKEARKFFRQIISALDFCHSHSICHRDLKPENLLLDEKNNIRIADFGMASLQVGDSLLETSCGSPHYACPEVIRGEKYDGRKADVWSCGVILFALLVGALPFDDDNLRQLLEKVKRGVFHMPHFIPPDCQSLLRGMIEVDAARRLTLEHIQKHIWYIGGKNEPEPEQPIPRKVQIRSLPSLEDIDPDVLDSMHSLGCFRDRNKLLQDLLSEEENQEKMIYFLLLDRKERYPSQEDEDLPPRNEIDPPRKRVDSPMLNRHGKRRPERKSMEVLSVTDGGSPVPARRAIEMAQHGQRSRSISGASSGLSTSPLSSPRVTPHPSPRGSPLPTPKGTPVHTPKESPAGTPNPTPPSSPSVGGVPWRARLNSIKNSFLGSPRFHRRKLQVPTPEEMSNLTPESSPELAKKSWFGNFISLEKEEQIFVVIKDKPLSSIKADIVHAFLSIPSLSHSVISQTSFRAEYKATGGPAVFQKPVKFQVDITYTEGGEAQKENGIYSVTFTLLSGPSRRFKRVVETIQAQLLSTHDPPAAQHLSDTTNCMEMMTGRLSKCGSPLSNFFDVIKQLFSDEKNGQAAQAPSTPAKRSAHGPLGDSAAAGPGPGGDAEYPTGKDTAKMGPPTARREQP
# UniProt P21127: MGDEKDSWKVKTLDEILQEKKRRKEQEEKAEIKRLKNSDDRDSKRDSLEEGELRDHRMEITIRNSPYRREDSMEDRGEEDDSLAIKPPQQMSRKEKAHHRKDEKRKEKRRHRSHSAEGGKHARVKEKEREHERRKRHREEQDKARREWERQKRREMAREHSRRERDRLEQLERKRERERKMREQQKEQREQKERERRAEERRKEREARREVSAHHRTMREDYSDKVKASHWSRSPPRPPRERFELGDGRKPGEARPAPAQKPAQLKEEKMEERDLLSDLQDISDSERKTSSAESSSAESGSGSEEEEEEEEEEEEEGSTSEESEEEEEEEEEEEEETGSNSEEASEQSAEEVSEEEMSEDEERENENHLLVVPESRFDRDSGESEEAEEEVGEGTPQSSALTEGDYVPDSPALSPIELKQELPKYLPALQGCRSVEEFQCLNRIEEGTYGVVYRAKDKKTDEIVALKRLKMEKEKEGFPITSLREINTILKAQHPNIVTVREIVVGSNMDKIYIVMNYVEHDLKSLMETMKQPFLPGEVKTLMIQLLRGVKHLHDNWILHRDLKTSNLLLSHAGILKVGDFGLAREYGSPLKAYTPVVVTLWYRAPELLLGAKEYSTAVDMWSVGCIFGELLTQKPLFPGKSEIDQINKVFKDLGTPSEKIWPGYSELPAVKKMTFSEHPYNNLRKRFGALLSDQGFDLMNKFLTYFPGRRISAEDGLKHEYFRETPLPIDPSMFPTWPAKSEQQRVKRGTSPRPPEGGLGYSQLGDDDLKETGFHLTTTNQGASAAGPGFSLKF
# UniProt Q9UPZ9: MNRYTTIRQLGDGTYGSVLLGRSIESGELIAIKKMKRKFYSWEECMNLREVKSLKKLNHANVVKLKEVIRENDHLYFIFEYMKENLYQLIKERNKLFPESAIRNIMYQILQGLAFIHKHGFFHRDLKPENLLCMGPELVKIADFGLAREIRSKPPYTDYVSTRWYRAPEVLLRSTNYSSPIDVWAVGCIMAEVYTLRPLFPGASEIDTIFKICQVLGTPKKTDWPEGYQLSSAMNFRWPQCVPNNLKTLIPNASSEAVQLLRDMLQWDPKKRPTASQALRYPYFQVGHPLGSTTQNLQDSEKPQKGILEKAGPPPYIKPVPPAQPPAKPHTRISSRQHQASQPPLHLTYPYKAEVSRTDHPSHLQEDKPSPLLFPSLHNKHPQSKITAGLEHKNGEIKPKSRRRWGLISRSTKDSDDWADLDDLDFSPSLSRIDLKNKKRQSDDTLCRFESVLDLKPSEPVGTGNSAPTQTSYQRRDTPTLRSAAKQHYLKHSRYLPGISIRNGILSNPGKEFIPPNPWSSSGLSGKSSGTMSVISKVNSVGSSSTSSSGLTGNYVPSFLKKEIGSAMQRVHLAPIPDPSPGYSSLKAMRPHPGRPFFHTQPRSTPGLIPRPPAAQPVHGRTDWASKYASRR
# UniProt Q16288, whole entry, looked up: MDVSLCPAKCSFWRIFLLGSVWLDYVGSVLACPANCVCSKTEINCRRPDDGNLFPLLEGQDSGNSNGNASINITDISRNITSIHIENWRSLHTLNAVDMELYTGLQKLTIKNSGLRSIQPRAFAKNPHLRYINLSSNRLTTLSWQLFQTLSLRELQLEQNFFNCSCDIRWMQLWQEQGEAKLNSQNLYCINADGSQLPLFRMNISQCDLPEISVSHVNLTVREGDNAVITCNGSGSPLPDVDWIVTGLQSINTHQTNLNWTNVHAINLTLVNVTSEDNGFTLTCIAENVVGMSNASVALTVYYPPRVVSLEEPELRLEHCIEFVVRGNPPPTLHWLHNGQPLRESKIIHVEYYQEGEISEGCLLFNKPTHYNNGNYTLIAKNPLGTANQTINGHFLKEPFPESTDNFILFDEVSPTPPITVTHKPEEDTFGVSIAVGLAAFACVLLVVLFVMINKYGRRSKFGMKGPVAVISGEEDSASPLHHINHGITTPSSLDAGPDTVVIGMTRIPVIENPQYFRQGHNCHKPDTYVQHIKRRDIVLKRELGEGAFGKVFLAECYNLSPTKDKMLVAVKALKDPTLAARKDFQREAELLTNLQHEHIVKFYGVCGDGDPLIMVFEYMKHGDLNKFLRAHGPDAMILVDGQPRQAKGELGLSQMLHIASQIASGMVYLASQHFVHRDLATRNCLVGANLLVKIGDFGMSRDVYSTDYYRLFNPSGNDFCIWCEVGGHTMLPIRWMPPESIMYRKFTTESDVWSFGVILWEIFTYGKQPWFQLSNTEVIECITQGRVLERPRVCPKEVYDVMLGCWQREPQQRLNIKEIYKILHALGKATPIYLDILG
# UniProt P48736: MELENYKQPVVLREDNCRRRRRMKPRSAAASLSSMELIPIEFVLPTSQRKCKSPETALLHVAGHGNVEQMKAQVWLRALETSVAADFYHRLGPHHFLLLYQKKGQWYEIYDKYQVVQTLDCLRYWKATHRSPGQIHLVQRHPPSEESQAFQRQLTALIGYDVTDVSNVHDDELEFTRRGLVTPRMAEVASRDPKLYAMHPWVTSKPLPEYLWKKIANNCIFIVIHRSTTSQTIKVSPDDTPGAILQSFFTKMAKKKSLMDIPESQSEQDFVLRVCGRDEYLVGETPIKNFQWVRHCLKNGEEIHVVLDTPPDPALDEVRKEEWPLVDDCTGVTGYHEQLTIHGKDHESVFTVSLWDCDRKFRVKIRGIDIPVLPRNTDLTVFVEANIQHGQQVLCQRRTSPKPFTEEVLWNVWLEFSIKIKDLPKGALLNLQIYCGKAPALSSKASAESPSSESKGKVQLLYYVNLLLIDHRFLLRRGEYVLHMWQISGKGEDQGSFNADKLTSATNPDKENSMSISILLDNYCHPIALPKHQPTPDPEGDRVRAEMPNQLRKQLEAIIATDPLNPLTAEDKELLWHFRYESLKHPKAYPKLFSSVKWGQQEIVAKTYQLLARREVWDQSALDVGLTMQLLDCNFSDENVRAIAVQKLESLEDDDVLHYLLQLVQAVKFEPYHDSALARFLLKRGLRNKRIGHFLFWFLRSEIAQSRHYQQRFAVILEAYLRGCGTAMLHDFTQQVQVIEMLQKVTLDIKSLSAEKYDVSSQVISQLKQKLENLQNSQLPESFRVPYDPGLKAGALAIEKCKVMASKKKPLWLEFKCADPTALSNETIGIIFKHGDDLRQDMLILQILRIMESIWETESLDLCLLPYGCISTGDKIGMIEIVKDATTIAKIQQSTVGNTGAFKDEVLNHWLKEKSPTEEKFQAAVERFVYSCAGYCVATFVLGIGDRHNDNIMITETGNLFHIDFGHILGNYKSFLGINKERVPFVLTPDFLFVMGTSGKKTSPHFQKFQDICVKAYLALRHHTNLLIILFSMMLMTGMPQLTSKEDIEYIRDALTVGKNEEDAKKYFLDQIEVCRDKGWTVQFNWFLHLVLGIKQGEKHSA
# UniProt Q02763: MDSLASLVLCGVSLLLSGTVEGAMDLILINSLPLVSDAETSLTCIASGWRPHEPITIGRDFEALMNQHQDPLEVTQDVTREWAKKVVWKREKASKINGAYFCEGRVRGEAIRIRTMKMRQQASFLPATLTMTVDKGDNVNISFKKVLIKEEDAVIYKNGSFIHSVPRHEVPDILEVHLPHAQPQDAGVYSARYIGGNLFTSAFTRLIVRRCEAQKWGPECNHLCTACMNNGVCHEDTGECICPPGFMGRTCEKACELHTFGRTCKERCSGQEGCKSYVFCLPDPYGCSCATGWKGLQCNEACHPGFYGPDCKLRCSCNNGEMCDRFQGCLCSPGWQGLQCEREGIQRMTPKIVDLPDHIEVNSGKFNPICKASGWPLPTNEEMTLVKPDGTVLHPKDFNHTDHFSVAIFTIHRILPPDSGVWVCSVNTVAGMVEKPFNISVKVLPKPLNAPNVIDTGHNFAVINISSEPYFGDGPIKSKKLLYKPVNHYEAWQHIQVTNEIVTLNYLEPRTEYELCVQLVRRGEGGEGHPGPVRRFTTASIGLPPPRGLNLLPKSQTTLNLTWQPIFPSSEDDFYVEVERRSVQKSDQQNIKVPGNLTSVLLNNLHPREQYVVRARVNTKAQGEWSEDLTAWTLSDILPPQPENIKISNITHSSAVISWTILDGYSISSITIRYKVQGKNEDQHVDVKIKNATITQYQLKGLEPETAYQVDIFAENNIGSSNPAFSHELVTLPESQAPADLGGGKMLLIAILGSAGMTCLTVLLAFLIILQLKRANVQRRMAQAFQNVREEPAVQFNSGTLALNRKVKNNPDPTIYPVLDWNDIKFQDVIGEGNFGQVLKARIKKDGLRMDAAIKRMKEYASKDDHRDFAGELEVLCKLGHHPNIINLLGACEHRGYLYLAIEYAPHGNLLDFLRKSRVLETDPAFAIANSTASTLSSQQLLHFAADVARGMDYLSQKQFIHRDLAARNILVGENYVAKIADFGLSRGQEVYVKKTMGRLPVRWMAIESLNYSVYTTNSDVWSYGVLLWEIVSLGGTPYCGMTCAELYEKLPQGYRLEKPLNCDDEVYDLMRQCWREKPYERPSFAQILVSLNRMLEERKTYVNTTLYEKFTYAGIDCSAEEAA
# UniProt Q8WTQ7: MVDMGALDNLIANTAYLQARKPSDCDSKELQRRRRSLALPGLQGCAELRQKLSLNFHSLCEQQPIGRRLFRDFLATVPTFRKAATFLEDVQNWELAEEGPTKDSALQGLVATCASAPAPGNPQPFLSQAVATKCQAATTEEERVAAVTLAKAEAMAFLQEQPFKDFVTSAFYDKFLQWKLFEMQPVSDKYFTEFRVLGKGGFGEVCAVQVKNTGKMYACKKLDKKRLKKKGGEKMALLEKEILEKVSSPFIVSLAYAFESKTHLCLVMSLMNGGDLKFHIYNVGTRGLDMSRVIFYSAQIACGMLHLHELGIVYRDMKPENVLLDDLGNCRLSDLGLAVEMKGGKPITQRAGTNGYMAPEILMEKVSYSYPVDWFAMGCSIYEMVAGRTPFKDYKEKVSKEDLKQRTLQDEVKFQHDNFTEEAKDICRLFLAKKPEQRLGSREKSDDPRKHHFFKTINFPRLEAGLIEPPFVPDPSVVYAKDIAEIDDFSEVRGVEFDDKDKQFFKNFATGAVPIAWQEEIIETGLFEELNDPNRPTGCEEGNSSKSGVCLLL
# Details in all cases: at 1 µM
# [1] = molecular target: Tyrosine-protein kinase Blk (Homo sapiens) (UniProt P51451); experiment: Selectivity interaction (KinomeScan (DiscoverX)) EUB0001581a BLK
# [2] = molecular target: Bone morphogenetic protein receptor type-1B (Homo sapiens, UniProt O00238); experiment: Selectivity interaction (KinomeScan (DiscoverX)) EUB0001581a BMPR1B
# [3] = molecular target: Serine/threonine-protein kinase BRSK2 (Homo sapiens) (UniProt Q8IWQ3); experiment: Selectivity interaction (KinomeScan (DiscoverX)) EUB0001581a BRSK2
# [4] = molecular target: Peripheral plasma membrane protein CASK (Homo sapiens) (UniProt O14936); experiment: Selectivity interaction (KinomeScan (DiscoverX)) EUB0001581a CASK
# [5] = molecular target: Cyclin-dependent kinase 11B (Homo sapiens) (UniProt P21127); experiment: Selectivity interaction (KinomeScan (DiscoverX)) EUB0001581a CDK11B
# [6] = molecular target: Cyclin-dependent kinase-like 3 (Homo sapiens) (UniProt Q8IVW4); experiment: Selectivity interaction (KinomeScan (DiscoverX)) EUB0001581a CDKL3
# [7] = molecular target: Casein kinase II subunit alpha' (Homo sapiens) (UniProt P19784); experiment: Selectivity interaction (KinomeScan (DiscoverX)) EUB0001581a CSNK2A2
# [8] = molecular target: Epithelial discoidin domain-containing receptor 1 (Homo sapiens) (UniProt Q08345); experiment: Selectivity interaction (KinomeScan (DiscoverX)) EUB0001581a DDR1
# [9] = molecular target: Dual specificity tyrosine-phosphorylation-regulated kinase 1B (Homo sapiens, UniProt Q9Y463); experiment: Selectivity interaction (KinomeScan (DiscoverX)) EUB0001581a DYRK1B
# Ephrin type-A receptor 4 = Ephrin type-A receptor 4 (Homo sapiens, UniProt P54764); experiment: Selectivity interaction (KinomeScan (DiscoverX)) EUB0001581a EPHA4
# [10] = molecular target: Ephrin type-A receptor 8 (Homo sapiens) (UniProt P29322); experiment: Selectivity interaction (KinomeScan (DiscoverX)) EUB0001581a EPHA8
# [11] = molecular target: Tyrosine-protein kinase Fes/Fps (Homo sapiens) (UniProt P07332); experiment: Selectivity interaction (KinomeScan (DiscoverX)) EUB0001581a FES
# [12] = molecular target: Serine/threonine-protein kinase ICK (Homo sapiens) (UniProt Q9UPZ9); experiment: Selectivity interaction (KinomeScan (DiscoverX)) EUB0001581a ICK
# [13] = molecular target: Tyrosine-protein kinase ITK/TSK (Homo sapiens) (UniProt Q08881); experiment: Selectivity interaction (KinomeScan (DiscoverX)) EUB0001581a ITK
# [14] = molecular target: Tyrosine-protein kinase JAK3 (Homo sapiens) (UniProt P52333); experiment: Selectivity interaction (KinomeScan (DiscoverX)) EUB0001581a JAK3
# [15] = molecular target: Mitogen-activated protein kinase kinase kinase 6 (Homo sapiens) (UniProt O95382); experiment: Selectivity interaction (KinomeScan (DiscoverX)) EUB0001581a MAP3K6
# [16] = molecular target: Mitogen-activated protein kinase kinase kinase kinase 1 (Homo sapiens) (UniProt Q92918); experiment: Selectivity interaction (KinomeScan (DiscoverX)) EUB0001581a MAP4K1
# [17] = molecular target: Mitogen-activated protein kinase 14 (Homo sapiens, UniProt Q16539); experiment: Selectivity interaction (KinomeScan (DiscoverX)) EUB0001581a MAPK14
# [18] = molecular target: Mitogen-activated protein kinase 8 (Homo sapiens, UniProt P45983); experiment: Selectivity interaction (KinomeScan (DiscoverX)) EUB0001581a MAPK8
# [19] = molecular target: NT-3 growth factor receptor (Homo sapiens, UniProt Q16288); experiment: Selectivity interaction (KinomeScan (DiscoverX)) EUB0001581a NTRK3
# [20] = molecular target: NUAK family SNF1-like kinase 1 (Homo sapiens) (UniProt O60285); experiment: Selectivity interaction (KinomeScan (DiscoverX)) EUB0001581a NUAK1
# [21] = molecular target: Phosphatidylinositol 4-phosphate 3-kinase C2 domain-containing subunit beta (Homo sapiens) (UniProt O00750); experiment: Selectivity interaction (KinomeScan (DiscoverX)) EUB0001581a PIK3C2B
# [22] = test system: Phosphatidylinositol 4,5-bisphosphate 3-kinase catalytic subunit alpha isoform (Homo sapiens), P42336 [E545K]; experiment: Selectivity interaction (KinomeScan (DiscoverX)) EUB0001581a PIK3CA
# [23] = molecular target: Phosphatidylinositol 4,5-bisphosphate 3-kinase catalytic subunit gamma isoform (Homo sapiens) (UniProt P48736); experiment: Selectivity interaction (KinomeScan (DiscoverX)) EUB0001581a PIK3CG
# [24] = molecular target: Serine/threonine-protein kinase pim-3 (Homo sapiens) (UniProt Q86V86); experiment: Selectivity interaction (KinomeScan (DiscoverX)) EUB0001581a PIM3
# [25] = molecular target: cAMP-dependent protein kinase catalytic subunit alpha (Homo sapiens, UniProt P17612); experiment: Selectivity interaction (KinomeScan (DiscoverX)) EUB0001581a PRKACA
# [26] = molecular target: Serine/threonine-protein kinase D2 (Homo sapiens) (UniProt Q9BZL6); experiment: Selectivity interaction (KinomeScan (DiscoverX)) EUB0001581a PRKD2
# [27] = molecular target: Receptor-interacting serine/threonine-protein kinase 1 (Homo sapiens) (UniProt Q13546); experiment: Selectivity interaction (KinomeScan (DiscoverX)) EUB0001581a RIPK1
# [28] = molecular target: Proto-oncogene tyrosine-protein kinase ROS (Homo sapiens) (UniProt P08922); experiment: Selectivity interaction (KinomeScan (DiscoverX)) EUB0001581a ROS1
# [29] = molecular target: Ribosomal protein S6 kinase alpha-1 (Homo sapiens, UniProt Q15418); experiment: Selectivity interaction (KinomeScan (DiscoverX)) EUB0001581a RPS6KA1
# [30] = molecular target: Ribosomal protein S6 kinase alpha-4 (Homo sapiens) (UniProt O75676); experiment: Selectivity interaction (KinomeScan (DiscoverX)) EUB0001581a RPS6KA4
# [31] = molecular target: SNF-related serine/threonine-protein kinase (Homo sapiens) (UniProt Q9NRH2); experiment: Selectivity interaction (KinomeScan (DiscoverX)) EUB0001581a SNRK
# [32] = molecular target: Serine/threonine-protein kinase 17A (Homo sapiens) (UniProt Q9UEE5); experiment: Selectivity interaction (KinomeScan (DiscoverX)) EUB0001581a STK17A
# [33] = molecular target: Angiopoietin-1 receptor (Homo sapiens) (UniProt Q02763); experiment: Selectivity interaction (KinomeScan (DiscoverX)) EUB0001581a TEK
# [34] = molecular target: Tyrosine-protein kinase receptor TYRO3 (Homo sapiens) (UniProt Q06418); experiment: Selectivity interaction (KinomeScan (DiscoverX)) EUB0001581a TYRO3
# [35] = molecular target: Cyclin-dependent kinase 7 (Homo sapiens, UniProt P50613)
# [36] = molecular target: Ephrin type-A receptor 3 (Homo sapiens) (UniProt P29320)
# [37] = molecular target: Rhodopsin kinase GRK7 (Homo sapiens) (UniProt Q8WTQ7)
# [38] = molecular target: Ribosomal protein S6 kinase alpha-2 (Homo sapiens) (UniProt Q15349)
smiles,measurement,setting,value
C[C@@H]1C[C@H](N)C[C@H](c2ccncc2NC(=O)c2ccc(F)c(-c3c(F)cccc3F)n2)C1,% of control,[1],89%
same,% of control,[2],100%
same,% of control,[3],100%
same,% of control,[4],84%
same,% of control,[5],92%
same,% of control,[6],100%
same,% of control,[7],52%
same,% of control,[8],98%
same,% of control,[9],100%
same,% of control,Ephrin type-A receptor 4,100%
same,% of control,[10],91%
same,% of control,[11],100%
same,% of control,[12],100%
same,% of control,[13],99%
same,% of control,[14],100%
same,% of control,[15],100%
same,% of control,[16],87%
same,% of control,[17],100%
same,% of control,[18],100%
same,% of control,[19],91%
same,% of control,[20],81%
same,% of control,[21],88%
same,% of control,[22],80%
same,% of control,[23],34%
same,% of control,[24],0.45%
same,% of control,[25],100%
same,% of control,[26],43%
same,% of control,[27],90%
same,% of control,[28],100%
same,% of control,[29],87%
same,% of control,[30],90%
same,% of control,[31],75%
same,% of control,[32],100%
same,% of control,[33],100%
same,% of control,[34],100%
same,% of control,[35],94%
same,% of control,[36],95%
same,% of control,[37],96%
same,% of control,[38],94%
